Construct, isoform or probe ends are uncertain for at least one entry. At least one verdict rests on a figure or table, not on a statement of the authors.
Test system: ΔNp63α WT
Test: pull-down
Details: pull-down: 50 mM Tris pH 8.0, 150 mM NaCl, 0.1% Tween-20, 4 °C, protein translated in vitro, residues 1-586, protein details: Myc

Sequence	binding result (label: 5' biotin on S10)	binding result (label: 5' biotin on S8)
AAAATATGACAGACATGATGAGGCGGATGA (double strand) [KRT14 RE (pulldown)]	binds	
GCCAGGAACATGTCCCAACATGTTGAGCCG (double strand) [p21 RE (pulldown)]		binds
